# This is a selection; strong and weak results do not stand in their true shares. Results filed as inconclusive are left out. Active and inactive are the calls of the source. Rule for the calls: active = hit-call score of the fitted dose curve at least 0.9, where 1 is the maximum; inconclusive = response in the unintended direction; inactive = score below 0.9.
# System: frog Retinoid X Receptor beta (RXRb), gene 394278
# Experiment: ATG_frRXRb_EcoTox2: Attagene TRANS-FACTORIAL EcoTox-2 HepG2 Assay for frog Retinoid X Receptor beta (RXRb)
# Protocol: ATG_EcoTox2 is a cell-based, multiplexed assay created by modifying the existing Attagene TRANS-FACTORIAL system to include a panel of nuclear receptors from some or all the following species: human (Homo sapiens), african clawed frog (Xenopus laevis), rainbow trout (Oncorhynchus mykiss), japanese medaka (Oryzias latipes), and zebrafish (Danio rerio). The ECOTOX2-FACTORIAL format uses HepG2, a human liver cell line, with measurements taken at 24 hours after chemical dosing in a 24-well plate. ATG_frRXRb_EcoTox2 is one of 29 assay components calculated in the ATG_EcoTox2 assay. It is designed to make measurements of mRNA induction, a form of inducible reporter, as detected with fluorescence intensity signals by Reverse transcription polymerase chain reaction (RT-PCR) and Capillary electrophoresis technology.The assay endpoint ATG_frRXRb_EcoTox2 was analyzed in the positive analysis fitting direction relative to DMSO as the negative control and baseline of activity. Using a type of inducible reporter, measures of mRNA for gain-of-signal activity can be used to understand the reporter gene at the transcription factor-level as they relate to the gene RXRb. Furthermore, this assay endpoint can be referred to as a primary readout, because this assay has produced multiple assay endpoints where this one serves a reporter gene function. […]
compound,measurement,value
CC(C)(Oc1ccc(CCNC(=O)c2ccc(Cl)cc2)cc1)C(=O)O,outcome,inactive
